# Assay results as given in PubChem BioAssay AID1347075 (National Center for Advancing Translational Sciences (NCATS), 2019).
# Screen size: about 400,000 compounds; about 5,500 (1.4%) were called active. The inconclusive results got no clear call from the source; some entries with a clear call stand among them for comparison. The call rests on the fitted dose curve; in most records, active means well fitted cell-killing curve with a large enough effect; inconclusive means small, poorly fitted or top-dose-only effect, or effect the other way; inactive means flat fitted curve, though single readings scatter. A potency beside an inconclusive call is a rough fit, not a confirmed value.
# Assay: qHTS assay for MDR1-selective chemotherapeutics: Primary screen using the parental adenocarcinoma cell KB-3-1; further: nearly all actives have a fitted effect of over 60% in size
# Details: KB-3-1 viability, CellTiter-Glo ATP luminescence, 72 h; activity change, negative = cytotoxic: at 46.1 µM (top of the series)
# Procedure, shortened: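 Cells are dispensed, compounds pinned in, plates held at 37 °C for 72 h, then CellTiter-Glo is added and luminescence read after 10 minutes. Cell line: parental KB-3-1 in phenol-red-free DMEM, 10% FBS.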
# On the % scale 0 is the no-effect control and ±100 the full control effect; potency means the concentration at half of the fitted maximal effect.
Compound,Potency,"activity change, negative = cytotoxic"
Cc1ccc(S(=O)(=O)N(CC(=O)N2CCC(C)CC2)Cc2ccccc2F)cc1,"inconclusive: 16.4 µM [cytotoxic, partial curve, poor fit]",
CC(C)(C)C(=O)Nc1ccc(Cl)c(-c2nc3ccccc3[nH]2)c1,inactive,
Cc1ccccc1NC(=S)NC(=O)COc1ccccc1C,inactive,
COc1cc(-c2cc(C(=O)Nc3ccc(S(=O)(=O)NCc4ccco4)cc3)c3ccccc3n2)cc(OC)c1OC,"inconclusive: 13 µM [cytotoxic, partial curve, poor fit]",
Cn1cccc1C(=O)OCC(=O)Nc1sccc1C#N,"inconclusive: 9.2 µM [rising, partial curve]",
O=[N+]([O-])c1ccc(N/N=C/c2sc(N3CCOCC3)nc2-c2ccccc2)c(S(=O)(=O)Nc2ccccc2Cl)c1,active: 9.2 µM,
CCC(C)NCCOCCOc1ccc(Cl)c2ccccc12 (stereo not given),"inconclusive: 29.1 µM [cytotoxic, single point]",
O=C1C=CC(=C(c2ccc(O)cc2)c2ccc(O)cc2)C=C1,active: 5.8 µM,
CC(=O)C1=CCC(c2ccc(Cl)cc2)N(S(=O)(=O)c2ccccc2)C1 (stereo not given),"inconclusive: 29.1 µM [cytotoxic, single point]",
Cc1ncc([N+](=O)[O-])n1CCOC(=O)Nc1ccc([N+](=O)[O-])cc1,inactive,
Cc1ccc(Cc2nnc3n(-c4ccccc4)nc(C(=O)c4ccccc4)n3c2=O)cc1,"inconclusive: 20.6 µM [cytotoxic, single point]",
Cc1ccc(C2NC(=O)c3ccccc3N2)c(C)c1 (stereo not given),active: 3.66 µM,
COc1ccc(/C=C/C(=O)c2cc(Br)ccc2O)cc1OC,"inconclusive: 9.2 µM [cytotoxic, partial curve, poor fit]",
O=C(NC1CCN(Cc2ccc(Cl)cc2)CC1)c1cn(-c2ccccc2)nc1-c1cccnc1,,inconclusive: -29.4%
COc1ccc(Cc2nnc(Nc3ccccc3OC)[nH]c2=O)cc1,"inconclusive: 3.26 µM [rising, partial curve, poor fit]",
NC(=O)c1cnn2c(C(F)(F)F)cc(-c3ccccc3)nc12,inactive,
CCSc1ccccc1C(=O)n1nnc2ccccc21,"inconclusive: 35.5 µM [cytotoxic, single point]",
CN(C(=O)COC(=O)c1ccc(Cl)nc1)C1CCS(=O)(=O)C1 (stereo not given),inactive,
CC(Oc1cccc(Cl)c1)C(=O)Nc1cc(S(=O)(=O)N2CCOCC2)ccc1N1CCCCC1 (stereo not given),"inconclusive: 29.1 µM [cytotoxic, single point]",
Cn1c(N2CCOCC2)c(/C=N/OC(=O)c2ccc(F)cc2)c2ccccc21,active: 4.11 µM,
CCOC(=O)N1CCN(c2c(NCc3ccccc3Cl)c(=O)c2=O)CC1,"inconclusive: 18.4 µM [cytotoxic, single point]",
O=c1c2ccccc2nc(SCc2nc3ccccc3s2)n1Cc1ccco1,inactive,

Compound,Potency,"activity change, negative = cytotoxic"
O=C(CSc1c2c(nc3ccc(Cl)cc13)CCCC2)NCc1ccco1,"inconclusive: 29.1 µM [cytotoxic, single point]",
O=C(CSc1nnc(-c2ccc(O)cc2)o1)Nc1ccccc1,"inconclusive: 18.4 µM [rising, single point]",
O=S(=O)(c1ccc(F)cc1)n1ccc(-c2cccc(OCc3c(F)cccc3Cl)c2)n1,"inconclusive: 23.1 µM [cytotoxic, single point]",
Cn1cccc1C1C=C(c2ccc(C(C)(C)C)cc2)Nc2ncnn21 (stereo not given),"inconclusive: 29.1 µM [cytotoxic, single point]",
Cc1cccc(CC(Cc2nc3ccccc3[nH]2)c2nc3ccccc3[nH]2)c1 (stereo not given),"inconclusive: 29.1 µM [cytotoxic, single point]",
O=c1c2ccccc2nc(/C=C/c2ccc([N+](=O)[O-])cc2)n1CCCO,"inconclusive: 7.31 µM [rising, partial curve, poor fit]",
CC(C)Cc1cc(C(=O)N(C)C2CCCN(Cc3ccccc3F)C2)n(C)n1 (stereo not given),"inconclusive: 0.731 µM [cytotoxic, full curve, poor fit]",
Cc1cccc(N2CCN(C(=O)c3ccc4ncsc4c3)CC2)c1C,active: 4.61 µM,
C[C@H](CO)N1C[C@H](C)[C@H](CN(C)S(=O)(=O)c2ccc(F)cc2)OCc2cnnn2CCCC1=O,"inconclusive: 29.1 µM [rising, single point]",
Cc1ccc(C)c(NS(=O)(=O)c2ccc(-c3cnc(C4CC4)o3)cc2)c1,"inconclusive: 0.184 µM [cytotoxic, full curve, poor fit]",
CC(C)Cn1c(SCC(=O)N2CCN(S(=O)(=O)c3ccccc3)CC2)nc2ccccc21,inactive,
O=C(OCC(=O)C12CC3CC(CC(C3)C1)C2)c1cccnc1Cl,"inconclusive: 16.4 µM [rising, single point]",
COc1ccc(/C=N/n2cnc3c([nH]c4ccc(C)cc43)c2=O)cc1CN1CCCC1,"inconclusive: 29.1 µM [cytotoxic, single point]",
O=C(CN1CCN(c2nc(-c3ccccc3)cs2)CC1)Nc1ccc2c(c1)OCO2,"inconclusive: 29.1 µM [cytotoxic, single point]",
NC(=O)NC(CC(=O)NNC(=O)c1ccccn1)c1ccc(Cl)cc1 (stereo not given),"inconclusive: 29.1 µM [cytotoxic, single point]",
C/C(=N\NC(=O)c1cccc(Cl)c1)C1C(=O)c2ccccc2C1=O,active: 23.1 µM,
Cc1ccc(Oc2nc(-c3cccnc3)nc3ccccc23)c([N+](=O)[O-])n1,"inconclusive: 3.66 µM [rising, partial curve, poor fit]",
O=C(CN1CCN(c2ccc(Cl)cc2)CC1)Nc1ccc(F)cc1,"inconclusive: 29.1 µM [cytotoxic, single point]",
CN(C)c1ccc2c(c1)OC(N)=C(C#N)C2c1cccc(F)c1 (stereo not given),"inconclusive: 0.0065 µM [cytotoxic, full curve, poor fit]",
O=C(Nc1ccc(C(=O)N2CCN(c3ccccc3F)CC2)cc1)C1=CSCCO1,"inconclusive: 5.8 µM [cytotoxic, partial curve]",
CCOC(=O)c1c(NC(=O)CCCOc2ccc(C(C)(C)C)cc2)sc2c1CCCC2,inactive,
CCc1c(-c2ccccc2)ncn1Cc1cccc(-c2ccccc2)c1,,inconclusive: -49.5%

# Filtered by structure: the entries above containing fluorine (9)
Compound,Potency,"activity change, negative = cytotoxic"
Cc1ccc(S(=O)(=O)N(CC(=O)N2CCC(C)CC2)Cc2ccccc2F)cc1,"inconclusive: 16.4 µM [cytotoxic, partial curve, poor fit]",
NC(=O)c1cnn2c(C(F)(F)F)cc(-c3ccccc3)nc12,inactive,
Cn1c(N2CCOCC2)c(/C=N/OC(=O)c2ccc(F)cc2)c2ccccc21,active: 4.11 µM,
O=S(=O)(c1ccc(F)cc1)n1ccc(-c2cccc(OCc3c(F)cccc3Cl)c2)n1,"inconclusive: 23.1 µM [cytotoxic, single point]",
CC(C)Cc1cc(C(=O)N(C)C2CCCN(Cc3ccccc3F)C2)n(C)n1 (stereo not given),"inconclusive: 0.731 µM [cytotoxic, full curve, poor fit]",
C[C@H](CO)N1C[C@H](C)[C@H](CN(C)S(=O)(=O)c2ccc(F)cc2)OCc2cnnn2CCCC1=O,"inconclusive: 29.1 µM [rising, single point]",
O=C(CN1CCN(c2ccc(Cl)cc2)CC1)Nc1ccc(F)cc1,"inconclusive: 29.1 µM [cytotoxic, single point]",
CN(C)c1ccc2c(c1)OC(N)=C(C#N)C2c1cccc(F)c1 (stereo not given),"inconclusive: 0.0065 µM [cytotoxic, full curve, poor fit]",
O=C(Nc1ccc(C(=O)N2CCN(c3ccccc3F)CC2)cc1)C1=CSCCO1,"inconclusive: 5.8 µM [cytotoxic, partial curve]",

# Ordered by count of non-hydrogen atoms (descending): 3 of the compounds above
Compound,Potency,"activity change, negative = cytotoxic"
COc1ccc(/C=N/n2cnc3c([nH]c4ccc(C)cc43)c2=O)cc1CN1CCCC1,"inconclusive: 29.1 µM [cytotoxic, single point]",
Cc1cccc(CC(Cc2nc3ccccc3[nH]2)c2nc3ccccc3[nH]2)c1 (stereo not given),"inconclusive: 29.1 µM [cytotoxic, single point]",
C/C(=N\NC(=O)c1cccc(Cl)c1)C1C(=O)c2ccccc2C1=O,active: 23.1 µM,

# The results go on.

Compound,Potency,"activity change, negative = cytotoxic"
CCCC(=O)NC(c1ccc(OC)cc1)c1c(O)ccc2ccccc12 (stereo not given),"inconclusive: 18.4 µM [cytotoxic, single point]",
Nc1nonc1C(=O)NCCN=Cc1cc(Cc2ccccc2)cc(Br)c1O,"inconclusive: 29.1 µM [cytotoxic, single point]",
CCOC(=O)Cn1cnc2scc(-c3ccc(C)c(C)c3)c2c1=O,"inconclusive: 13 µM [rising, partial curve, poor fit]",
CCOc1ccc(-c2cc(NC(=O)Nc3ccc(Cl)cc3)c(C(=O)OC)s2)cc1,"inconclusive: 20.6 µM [rising, partial curve, poor fit]",
S=C(N/N=C/c1ccco1)NC1CC2CCC1C2 (stereo not given),inactive,
COc1ccc(Cl)cc1NC(=O)CN(C)C(=O)c1cn2ccccc2n1,"inconclusive: 23.1 µM [cytotoxic, single point]",
CS(=O)(=O)N(CC(=O)N1CCc2ccccc2C1)Cc1ccc(Cl)cc1,"inconclusive: 29.1 µM [cytotoxic, partial curve, poor fit]",
CCOc1ccc(NC(=O)CCN2CCN(c3ccccc3F)CC2)cc1,"inconclusive: 29.1 µM [cytotoxic, single point]",
CC1CCN(C(=O)CN2C(=O)COc3ccc(Cl)cc32)CC1,"inconclusive: 29.1 µM [cytotoxic, single point]",
Cc1ccc(N2C(=O)C3C(C(=O)c4ccccc4)=NN(c4ccccc4)C3C2=O)cc1 (stereo not given),"inconclusive: 25.9 µM [rising, partial curve, poor fit]",
COc1cccc(-n2nnnc2S(C)(=O)=O)c1,"inconclusive: 29.1 µM [cytotoxic, single point]",
O=S(=O)(c1ccc(NC(=S)NCCC(c2ccccc2)c2ccccc2)cc1)N1CCOCC1,"inconclusive: 29.1 µM [cytotoxic, single point]",
OCOCCCn1c(C2CCCN2c2nc(-c3ccc(F)cc3)cs2)nc2cc(Cl)c(N3CCCCC3)cc21 (stereo not given),"inconclusive: 23.1 µM [cytotoxic, single point]",
COc1ccc(-c2cc3c(=O)n(CC(=O)Nc4cc(F)ccc4F)ccn3n2)cc1OC,"inconclusive: 7.31 µM [rising, partial curve]",
O=C(N=Nc1c(O)[nH]c2ccc(Cl)cc12)c1cc(-c2cccs2)nc2ccccc12,"inconclusive: 29.1 µM [cytotoxic, single point]",
Cc1ccc(S(=O)(=O)NCCn2nc(C)cc2C)cc1,"inconclusive: 29.1 µM [rising, single point]",
CC(=O)N(Cc1cccnc1)c1cccc(-c2nc3ccccc3s2)c1,"inconclusive: 29.1 µM [cytotoxic, single point]",
C[n+]1c(-c2ccccc2)cc2c(=Cc3ccc([N+](=O)[O-])cc3)c3ccccc3n21,"inconclusive: 2.91 µM [cytotoxic, full curve, poor fit]",
O=C(Nc1ccc2c(c1)OCO2)c1cc(C2CCCN(C(=O)C3CCCCC3)C2)on1 (stereo not given),inactive,
CCOc1ccc(C(=O)CCC(=O)NCC(=O)OCc2ccccc2)cc1OCC,"inconclusive: 32.6 µM [rising, single point]",
CCNC(=S)Nc1scc(-c2ccccc2)c1C(=O)OCC,"inconclusive: 29.1 µM [cytotoxic, single point]",
